Assay results: the supplement of paper PMC12067093, “Discovery and optimisation of a covalent ligand for TRIM25 and its application to targeted protein ubiquitination” (Chemical Science, 2025)
Some of the results follow.

Sequences of proteins named here, by UniProt entry; tags and fusion partners are left off. A change or cut given only in a name is not applied to a line headed by its entry.
UniProt Q9H845: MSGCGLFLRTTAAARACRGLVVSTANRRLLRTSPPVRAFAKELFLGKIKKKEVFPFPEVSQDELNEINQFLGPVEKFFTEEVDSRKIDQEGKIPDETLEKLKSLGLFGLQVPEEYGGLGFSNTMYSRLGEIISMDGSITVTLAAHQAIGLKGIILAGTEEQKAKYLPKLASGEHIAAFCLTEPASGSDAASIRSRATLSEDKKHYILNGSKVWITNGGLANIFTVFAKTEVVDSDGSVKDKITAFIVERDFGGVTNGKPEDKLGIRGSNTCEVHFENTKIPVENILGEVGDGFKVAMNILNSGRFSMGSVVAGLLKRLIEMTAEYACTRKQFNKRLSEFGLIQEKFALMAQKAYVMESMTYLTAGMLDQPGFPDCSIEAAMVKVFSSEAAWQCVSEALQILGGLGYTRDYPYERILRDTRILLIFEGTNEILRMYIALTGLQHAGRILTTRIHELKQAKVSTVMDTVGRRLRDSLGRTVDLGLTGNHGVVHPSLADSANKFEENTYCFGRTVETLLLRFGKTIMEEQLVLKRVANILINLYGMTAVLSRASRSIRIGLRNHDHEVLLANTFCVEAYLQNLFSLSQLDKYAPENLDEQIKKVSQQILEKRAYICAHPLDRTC
UniProt Q2M2I8: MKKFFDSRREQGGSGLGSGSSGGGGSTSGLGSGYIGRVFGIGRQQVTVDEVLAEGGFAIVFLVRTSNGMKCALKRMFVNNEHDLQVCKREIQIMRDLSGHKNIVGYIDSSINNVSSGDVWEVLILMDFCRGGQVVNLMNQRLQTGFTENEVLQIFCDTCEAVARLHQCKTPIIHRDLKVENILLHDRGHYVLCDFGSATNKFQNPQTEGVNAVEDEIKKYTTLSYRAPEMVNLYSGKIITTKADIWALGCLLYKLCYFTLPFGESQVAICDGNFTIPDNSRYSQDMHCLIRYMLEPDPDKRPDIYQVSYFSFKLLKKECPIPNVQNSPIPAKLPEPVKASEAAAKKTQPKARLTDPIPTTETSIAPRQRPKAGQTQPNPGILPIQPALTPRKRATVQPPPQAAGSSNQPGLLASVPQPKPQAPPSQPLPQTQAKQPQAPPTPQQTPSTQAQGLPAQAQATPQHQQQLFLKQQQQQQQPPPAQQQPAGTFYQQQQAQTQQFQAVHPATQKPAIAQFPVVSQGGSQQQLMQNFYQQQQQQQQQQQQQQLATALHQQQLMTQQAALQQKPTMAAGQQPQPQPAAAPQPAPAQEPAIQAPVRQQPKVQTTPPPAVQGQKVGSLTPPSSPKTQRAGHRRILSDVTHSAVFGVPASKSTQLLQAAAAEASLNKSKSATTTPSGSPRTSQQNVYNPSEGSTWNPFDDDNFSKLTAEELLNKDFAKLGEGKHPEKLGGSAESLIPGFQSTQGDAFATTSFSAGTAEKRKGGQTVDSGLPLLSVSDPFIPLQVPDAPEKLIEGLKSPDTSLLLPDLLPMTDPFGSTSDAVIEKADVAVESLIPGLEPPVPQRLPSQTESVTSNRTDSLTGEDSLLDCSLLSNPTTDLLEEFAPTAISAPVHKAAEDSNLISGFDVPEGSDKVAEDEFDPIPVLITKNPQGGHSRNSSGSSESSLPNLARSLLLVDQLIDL
UniProt P09110: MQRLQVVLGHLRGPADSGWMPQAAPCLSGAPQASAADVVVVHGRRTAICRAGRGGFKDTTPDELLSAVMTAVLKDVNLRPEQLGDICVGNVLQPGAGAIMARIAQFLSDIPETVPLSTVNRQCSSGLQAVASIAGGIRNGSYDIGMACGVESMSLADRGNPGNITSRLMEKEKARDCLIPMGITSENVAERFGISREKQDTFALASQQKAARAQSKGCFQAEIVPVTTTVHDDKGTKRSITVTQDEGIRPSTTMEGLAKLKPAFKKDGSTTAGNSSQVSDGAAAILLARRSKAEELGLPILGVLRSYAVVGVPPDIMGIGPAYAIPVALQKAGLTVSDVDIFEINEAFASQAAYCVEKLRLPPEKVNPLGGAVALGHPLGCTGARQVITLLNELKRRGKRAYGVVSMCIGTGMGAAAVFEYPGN
UniProt O14734: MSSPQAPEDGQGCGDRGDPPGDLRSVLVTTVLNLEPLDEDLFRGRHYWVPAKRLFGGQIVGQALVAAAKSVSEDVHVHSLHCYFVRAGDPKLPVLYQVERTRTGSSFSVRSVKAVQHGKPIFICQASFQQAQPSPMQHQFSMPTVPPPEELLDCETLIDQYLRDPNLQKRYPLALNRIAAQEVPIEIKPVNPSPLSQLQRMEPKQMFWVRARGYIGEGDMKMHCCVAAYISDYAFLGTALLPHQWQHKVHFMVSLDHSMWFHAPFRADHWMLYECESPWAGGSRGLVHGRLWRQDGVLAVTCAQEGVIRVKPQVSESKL
UniProt Q6UXT9: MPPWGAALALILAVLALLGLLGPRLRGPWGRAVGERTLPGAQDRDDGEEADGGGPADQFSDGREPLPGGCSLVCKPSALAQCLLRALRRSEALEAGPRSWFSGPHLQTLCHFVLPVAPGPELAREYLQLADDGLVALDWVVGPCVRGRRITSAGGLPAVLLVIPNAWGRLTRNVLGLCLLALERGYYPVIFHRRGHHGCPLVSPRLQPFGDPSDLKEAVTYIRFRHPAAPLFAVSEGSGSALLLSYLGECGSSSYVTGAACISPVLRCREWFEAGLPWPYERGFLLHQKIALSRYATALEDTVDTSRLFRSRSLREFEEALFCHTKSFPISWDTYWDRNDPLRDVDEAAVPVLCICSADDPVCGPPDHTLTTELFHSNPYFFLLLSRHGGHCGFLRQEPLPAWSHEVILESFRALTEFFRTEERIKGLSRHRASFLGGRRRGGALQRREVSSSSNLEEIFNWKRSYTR
UniProt Q9NUJ1: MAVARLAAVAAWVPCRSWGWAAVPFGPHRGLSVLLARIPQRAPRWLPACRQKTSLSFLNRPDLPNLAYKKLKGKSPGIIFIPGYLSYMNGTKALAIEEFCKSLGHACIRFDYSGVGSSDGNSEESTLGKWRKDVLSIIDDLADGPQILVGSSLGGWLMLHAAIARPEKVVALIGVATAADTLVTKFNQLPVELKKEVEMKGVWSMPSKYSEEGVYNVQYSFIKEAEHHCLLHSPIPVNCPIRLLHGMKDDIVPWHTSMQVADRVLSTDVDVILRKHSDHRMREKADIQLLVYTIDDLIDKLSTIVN
UniProt Q12979: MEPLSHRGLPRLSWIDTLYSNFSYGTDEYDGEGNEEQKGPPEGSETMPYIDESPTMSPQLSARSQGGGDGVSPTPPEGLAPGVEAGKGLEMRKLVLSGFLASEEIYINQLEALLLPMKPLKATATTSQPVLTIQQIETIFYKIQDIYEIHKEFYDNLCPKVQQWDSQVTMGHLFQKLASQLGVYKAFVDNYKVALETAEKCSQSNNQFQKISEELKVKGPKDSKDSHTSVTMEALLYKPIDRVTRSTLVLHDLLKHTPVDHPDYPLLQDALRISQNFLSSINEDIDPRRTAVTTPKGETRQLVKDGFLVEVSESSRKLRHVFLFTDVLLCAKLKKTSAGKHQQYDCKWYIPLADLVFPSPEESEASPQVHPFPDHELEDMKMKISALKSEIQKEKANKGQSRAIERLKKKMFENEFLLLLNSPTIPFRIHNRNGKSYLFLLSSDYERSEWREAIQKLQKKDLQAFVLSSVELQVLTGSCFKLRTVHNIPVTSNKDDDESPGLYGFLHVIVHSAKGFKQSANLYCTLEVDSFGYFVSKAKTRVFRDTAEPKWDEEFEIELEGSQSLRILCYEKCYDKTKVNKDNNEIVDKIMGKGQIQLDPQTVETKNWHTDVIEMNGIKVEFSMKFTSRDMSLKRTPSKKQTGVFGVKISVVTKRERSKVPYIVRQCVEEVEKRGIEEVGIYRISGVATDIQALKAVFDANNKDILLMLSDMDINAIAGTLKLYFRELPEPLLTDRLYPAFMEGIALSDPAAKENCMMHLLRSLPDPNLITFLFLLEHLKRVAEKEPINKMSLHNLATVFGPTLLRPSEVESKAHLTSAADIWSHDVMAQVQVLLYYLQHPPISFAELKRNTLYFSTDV
UniProt Q9UKV3: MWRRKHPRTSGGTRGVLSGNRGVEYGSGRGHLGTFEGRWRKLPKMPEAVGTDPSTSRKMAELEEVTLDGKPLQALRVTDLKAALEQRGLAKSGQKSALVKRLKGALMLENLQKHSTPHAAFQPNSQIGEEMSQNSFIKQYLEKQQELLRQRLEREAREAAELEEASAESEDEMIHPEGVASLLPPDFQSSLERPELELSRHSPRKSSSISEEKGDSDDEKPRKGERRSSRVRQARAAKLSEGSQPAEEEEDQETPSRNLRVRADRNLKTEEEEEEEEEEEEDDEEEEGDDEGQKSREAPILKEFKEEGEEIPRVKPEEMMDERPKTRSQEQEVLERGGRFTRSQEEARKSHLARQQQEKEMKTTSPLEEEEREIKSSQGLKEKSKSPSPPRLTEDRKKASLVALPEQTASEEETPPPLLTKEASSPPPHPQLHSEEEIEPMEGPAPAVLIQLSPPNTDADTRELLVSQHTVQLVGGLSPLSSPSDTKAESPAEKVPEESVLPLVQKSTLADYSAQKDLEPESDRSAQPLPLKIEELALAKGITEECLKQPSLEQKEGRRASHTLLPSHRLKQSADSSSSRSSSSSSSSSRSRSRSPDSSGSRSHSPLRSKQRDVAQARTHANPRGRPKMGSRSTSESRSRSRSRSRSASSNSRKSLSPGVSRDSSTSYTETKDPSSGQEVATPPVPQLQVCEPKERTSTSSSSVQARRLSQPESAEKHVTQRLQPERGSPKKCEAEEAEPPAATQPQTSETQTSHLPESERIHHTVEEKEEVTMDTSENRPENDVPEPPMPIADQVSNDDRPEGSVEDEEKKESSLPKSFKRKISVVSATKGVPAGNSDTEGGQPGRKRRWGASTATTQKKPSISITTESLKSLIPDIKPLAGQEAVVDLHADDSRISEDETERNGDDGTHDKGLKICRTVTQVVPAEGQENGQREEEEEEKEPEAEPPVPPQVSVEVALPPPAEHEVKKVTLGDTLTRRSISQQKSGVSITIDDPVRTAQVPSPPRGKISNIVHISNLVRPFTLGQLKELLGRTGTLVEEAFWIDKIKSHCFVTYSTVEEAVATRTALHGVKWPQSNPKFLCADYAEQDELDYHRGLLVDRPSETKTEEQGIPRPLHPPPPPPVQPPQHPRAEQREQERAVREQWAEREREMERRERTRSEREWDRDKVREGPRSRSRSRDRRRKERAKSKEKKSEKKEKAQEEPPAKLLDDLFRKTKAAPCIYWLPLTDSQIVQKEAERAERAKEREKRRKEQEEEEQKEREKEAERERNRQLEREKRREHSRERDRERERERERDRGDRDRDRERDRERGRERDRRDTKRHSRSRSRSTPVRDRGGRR
UniProt P33897: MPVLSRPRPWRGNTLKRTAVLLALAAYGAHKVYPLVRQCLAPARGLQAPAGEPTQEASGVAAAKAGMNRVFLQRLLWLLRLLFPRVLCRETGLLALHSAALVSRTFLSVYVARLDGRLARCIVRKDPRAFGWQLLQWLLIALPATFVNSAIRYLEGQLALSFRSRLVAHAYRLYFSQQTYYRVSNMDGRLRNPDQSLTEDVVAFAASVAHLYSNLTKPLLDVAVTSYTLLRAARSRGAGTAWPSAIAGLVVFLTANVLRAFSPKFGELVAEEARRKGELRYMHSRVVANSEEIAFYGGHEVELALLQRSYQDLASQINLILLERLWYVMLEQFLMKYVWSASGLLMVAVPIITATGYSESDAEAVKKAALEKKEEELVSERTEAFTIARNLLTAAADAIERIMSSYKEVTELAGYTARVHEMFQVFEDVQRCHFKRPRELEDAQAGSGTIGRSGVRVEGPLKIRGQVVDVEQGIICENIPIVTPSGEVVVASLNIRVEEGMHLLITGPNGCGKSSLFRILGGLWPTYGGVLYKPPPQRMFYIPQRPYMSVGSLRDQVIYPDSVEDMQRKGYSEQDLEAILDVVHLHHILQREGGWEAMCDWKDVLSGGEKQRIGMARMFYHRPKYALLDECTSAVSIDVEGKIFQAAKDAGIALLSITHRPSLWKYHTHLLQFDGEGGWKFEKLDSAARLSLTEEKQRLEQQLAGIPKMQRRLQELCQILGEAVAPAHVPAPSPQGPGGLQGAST
UniProt O00154: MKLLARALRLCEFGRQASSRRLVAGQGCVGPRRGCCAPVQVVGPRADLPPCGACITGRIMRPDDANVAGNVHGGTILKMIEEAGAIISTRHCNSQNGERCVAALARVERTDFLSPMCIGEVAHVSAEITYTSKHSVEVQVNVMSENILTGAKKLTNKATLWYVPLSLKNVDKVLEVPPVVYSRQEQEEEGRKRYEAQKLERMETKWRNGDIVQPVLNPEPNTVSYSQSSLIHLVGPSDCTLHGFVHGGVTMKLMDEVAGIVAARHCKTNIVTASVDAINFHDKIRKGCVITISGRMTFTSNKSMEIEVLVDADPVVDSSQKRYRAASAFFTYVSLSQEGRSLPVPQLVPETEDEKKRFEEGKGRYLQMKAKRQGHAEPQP

Compound: Cc1cc(ccc1-c1ccccc1)C(=O)N1CCCN(CC1)C(=O)CCl [compound 10]
Experiment: probe-labelled cysteine peptide fold change vs DMSO (competition) (log2 fold change); higher = less target engagement (more negative = stronger competition)
Settings: THP-1, incubation time: 4 h
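Further: competitive profiling in live THP-1 cells: cysteine peptides tagged with an iodoacetamide desthiobiotin (IA-DTB) probe, intensity after compound treatment relative to DMSO-treated cells.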

Row | Target | probe-labelled cysteine peptide fold change (10 µM) | probe-labelled cysteine peptide fold change (50 µM)
1 | ACAD9_Q9H845_179_LASGEHIAAFCLTEPASGSDAASIR (UniProt Q9H845) | 0.166 | 0.316
2 | AAK1_Q2M2I8_288_YSQDMHCLIR (UniProt Q2M2I8) | 0.0263 | -0.127
3 | ABCF2_Q9UG63_161_TPLHCVMEVDTER (UniProt Q9UG63) | -0.174 | -0.0244
4 | ACAA1_P09110_87_DVNLRPEQLGDICVGNVLQPGAGAIMAR (UniProt P09110) | -0.0367 | 0.282
5 | ACO1_P21399_50_NCDEFLVK (UniProt P21399) | -0.182 | 0.363
6 | ACADVL_P49748_156_ELGAFGLQVPSELGGVGLCNTQYAR (UniProt P49748) | -0.263 | 0.318
7 | ACOT8_O14734_302_QDGVLAVTCAQEGVIR (UniProt O14734) | -0.00349 | 0.0849
8 | ACAA1_P09110_177_ARDCLIPMGITSENVAER (UniProt P09110) | -0.114 | 0.0101
9 | ABHD15_Q6UXT9_323_SLREFEEALFCHTK (UniProt Q6UXT9) | 0.105 | 0.0371
10 | ABCA1_O95477_215_SEEMIQLGDQEVSELCGLPR (UniProt O95477) | -0.534 | 0.336
11 | ABHD10_Q9NUJ1_100_ALAIEEFCK (UniProt Q9NUJ1) | -0.122 | 0.0345
12 | ABR_Q12979_158_EFYDNLCPK (UniProt Q12979) | -0.0958 | -0.113
13 | ABCB1_P08183_1074_KGQTLALVGSSGCGK (UniProt P08183) | -0.121 | -0.0827
14 | ACIN1_Q9UKV3_1223_AAPCIYWLPLTDSQIVQK (UniProt Q9UKV3) | 0.264 | 0.0755
15 | ABHD15_Q6UXT9_323_EFEEALFCHTK (UniProt Q6UXT9) | 0.0269 | -0.0455
16 | ACADSB_P45954_385_CIEWMGGVGYTK (UniProt P45954) | 0.00276 | 0.31

Row | Target | probe-labelled cysteine peptide fold change (10 µM) | probe-labelled cysteine peptide fold change (50 µM)
17 | ABRAXAS2_Q15018_224_VQAVCADVEK (UniProt Q15018) | 0.115 | 0.0893
18 | ABHD3_Q8WU67_86_FLQDHCPVVTETYYPTVWCWEGR (UniProt Q8WU67) | -0.00323 | 0.159
19 | ACIN1_Q9UKV3_546_GITEECLK (UniProt Q9UKV3) | -0.137 | -0.182
20 | ACAD9_Q9H845_613_AYICAHPLDR (UniProt Q9H845) | -0.0975 | 0.218
21 | AAK1_Q2M2I8_156_LQTGFTENEVLQIFCDTCEAVAR (UniProt Q2M2I8) | -0.149 | 0.226
22 | AARS_P49588_723_VVSIGVPVSELLDDPSGPAGSLTSVEFCGGTHLR (UniProt P49588) | 0.243 | 0.318
23 | AAAS_Q9NRG9_331_CQTGCWSPDGSR (UniProt Q9NRG9) | 0.0497 | 0.000481
24 | ABR_Q12979_330_HVFLFTDVLLCAK (UniProt Q12979) | -0.0719 | 0.196
25 | ABR_Q12979_756_ENCMMHLLR (UniProt Q12979) | -0.114 | 0.0288
26 | ACO2_Q99798_592_CTTDHISAAGPWLK (UniProt Q99798) | 0.0389 | -0.0267
27 | ACIN1_Q9UKV3_1052_SHCFVTYSTVEEAVATR (UniProt Q9UKV3) | -0.047 | 0.0746
28 | ABCD1_P33897_599_EGGWEAMCDWK (UniProt P33897) | -0.0988 | -0.155
29 | ABHD16A_O95870_544_HLHNFEATHCTPLPAQNFQMPWHL (UniProt O95870) | -0.497 | -1.15
30 | ACLY_P53396_519_AVQGMLDFDYVCSRDEPSVAAMVYPFTGDHK (UniProt P53396) | -0.324 | -0.296
31 | ABCF3_Q9NUQ8_680_ELWVCEGGGVTR (UniProt Q9NUQ8) | -0.0969 | 0.141
32 | ACOT7_O00154_288_GCVITISGR (UniProt O00154) | 0.018 | 0.201

Record cards, as listed above:
ACOT7_O00154_288_GCVITISGR (UniProt O00154) is listed as probe-labelled cysteine peptide fold change (10 µM) = 0.018; probe-labelled cysteine peptide fold change (50 µM) = 0.201
ACOT8_O14734_302_QDGVLAVTCAQEGVIR (UniProt O14734) is listed as probe-labelled cysteine peptide fold change (10 µM) = -0.00349; probe-labelled cysteine peptide fold change (50 µM) = 0.0849
